The text below walks through data of paper PMC10914604, “FacZ is a GpsB-interacting protein that prevents aberrant division-site placement in Staphylococcus aureus” (Nature Microbiology, 2024).

Chains of the proteins cited; added tags and fusions are not shown.
UniProt Q2FYI5: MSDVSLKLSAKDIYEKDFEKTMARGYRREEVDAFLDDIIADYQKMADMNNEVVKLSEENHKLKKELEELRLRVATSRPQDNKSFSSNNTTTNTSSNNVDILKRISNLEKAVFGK

These are yes or no findings as the source states them, for the method shown. In cells and extracts the contact can be indirect. Some results given as binding are weak or reduced against the parent protein; the word gives no strength. Where a sequence is shown, tags or fusion partners need not be part of it.

The experiment addresses FLAG-tagged GpsB (GpsB-FLAG) (S. aureus) (UniProt Q2FYI5). Put plainly: co-IP; S. aureus cells co-expressing FacZ-His and GpsB-FLAG; solubilized membrane fractions loaded onto anti-FLAG magnetic beads, washed, eluted; blots with anti-His and anti-FLAG.

B1: 6xHis-tagged FacZ (FacZ-His) (protein, UniProt Q2G247 1-163)
chain: MDWILPIAGIIAAIAFLILCIGIVAVLNSVKKNLDYVAKTLDGVEGQVQGITRETTDLLHKVNRLTEDIQGKVDRLNSVVDAVKGIGDSVQTLNSSVDRVTNSITHNISQNEDKISQVVQWSNVAMEIADKWQNRHYRRGSANYKANNVATDANHSYTSRVDK
B1: the binding entry is recorded as “binds”.
